Experimental data published in patent US20070111956A1, “Remedy for sarcoidosis and method of treating the same” (Japan Science and Technology Agency, priority 2003, published 2007).
Counter-ions that a name gives are not always drawn. At least one compound was matched to its structure with a doubt left.

Experiments:
[1] = test system: indigenous P. acnes in the mouse lung; experiment: PCR detection of indigenous P. acnes in the mouse lung after antibiotics; assay type: in vivo, Propionibacterium acnes; details: PBS as a control; FIG. 8
Protocol: Samples of 1 μg of total RNA were isolated from the lungs, and regional lymph nodes samples of the lung, the liver, the skin and the pancreas of SPF mice using Trizol (Invitrogen, Groningen, the Netherlands) according to the manufacturer's instructions. Then, RNA samples were reverse transcribed into cDNA, and amplified (J. Exp. Med. 193, 35-49, 2001; J. Clin. Invest. 102, 1933-1941, 1998). PCR products of 16s ribosomal RNA of P. acnes were electrophoresed on 2.5% agarose gel. The bands visualized by ethidium bromide staining were expected size for each mRNA product. Oligonucleotide primers for P. acnes were designed as described previously (J. Clin. Microbiol. 40, 198-204, 2002): forward, 5′-[…]-3′ (SEQ ID NO: 1); reverse, 5′-TTCCGACGCGATCAACCA-3′ (SEQ ID NO: 2). Contamination of P. acnes during the experiment was checked by buffer control. As primers for GAPDH as an internal standard, previously described ones were used (J. Exp. Med. 193, 35-49, 2001). PCR conditions: heated at 95° C. for 5 min, followed by 40 cycles of 95° C. for 30 sec, 58° C. for 60 sec, 72° C. for 60 sec, and finally heated at 72° C. for 10 min.
Minocycline hydrochloride (MINO) (Wyeth Ledele, Tokyo, Japan) and clindamycin (CLDM) (Pharmacia, Tokyo, Japan) were used. On day one, 133 μg of MINO and 1.6 mg of CLDM were administered intratrancheally (i.t.). […]

[2] = test system: mice immunized three times with P. acnes; experiment: Antibiotic treatment in the mouse pulmonary granuloma (sarcoidosis) model: BAL cell counts and histology; assay type: in vivo; details: for granulomatous lesions / granuloma formation by histological examination: H & E staining, versus PBS group, FIG. 6c; for number of CD4+ cells in BAL, in words: in comparison to groups administered with PBS; for total number of BAL leukocytes: two weeks after the third immunization, antibiotics begun before immunization, versus PBS-treated group, FIG. 6a
Protocol: Female C57BL/6J mice of 5 to 7 weeks of age were obtained from CLEA Japan (Shizuoka, Japan) or Japan SLC, Inc. (Tokyo, Japan), and kept under specific pathogen-free (SPF) conditions in the animal facility of the Department of Molecular Preventive Medicine, Graduated School of Medicine, the University of Tokyo. All animal experiments were conducted in accordance with the guidelines of the University of Tokyo.
P. acnes-sensitized CD4^+ T cells were isolated from groins of normal mice and mice immunized three times. Immunization was conducted by subcutaneous injection of 400 μg of heat-killed P. acnes (ATCC11828, American Type Culture Collection, Manassas, Va.) and Freund's complete adjuvant (Difco, Detroit, Mich.) into the footpad at 2-week intervals. CD4^+ cells were isolated with the use of MACS system (Miltenyi Biotech, Bergisch Gladbach, Germany) according to manufacturer's instructions. The purity of CD4^+ cell populations was 94% or higher, as confirmed by immunostaining flow cytometry. The isolated CD4^+ cells (2×10^6 cells/PBS 200 μl) were injected into the tail vein of normal mice, and histological analysis of the lungs was conducted two weeks after the injection.
BAL cells were collected by five injections of 0.8 ml of sterile PBS containing 2% FCS (Sigma, St. Louis, Mo.) and 2 mM EDTA. The total number of BAL leukocytes was counted with a hemocytometer. Before the analysis with EPICS Elite instrument (Beckman Coulter, Miami, Fla.), BAL cells were preincubated with rat anti-mouse CD16/CD32 (clone; 2.4G2) mAb to block FcR-mediated binding, and then incubated for […] at 4° C. with FITC-conjugated anti-CD4 (H129.19) mAb and PE-conjugated anti-CD8a (53-6.7) mAb, both from BD Pharmingen.
Minocycline hydrochloride (MINO) (Wyeth Ledele, Tokyo, Japan) and clindamycin (CLDM) (Pharmacia, Tokyo, Japan) were used. On day one, 133 μg of MINO and 1.6 mg of CLDM were administered intratrancheally (i.t.). Subsequently, the same dose of each antibiotic was injected intraperitoneally (i.p.) everyday for one week before immunization, then intraperitoneal injection was conducted three times per week. During the experiment, mice were given water containing each antibiotic at the same dose as mentioned above. Similarly, ampicillin (ABPC), cefazolin sodium (CEZ), gentamicin sulfate (GM), fosfomycin (FOM), clarithromycin (CAM) were used and single dose of these antibiotics was set by calculating the maximum amount for regular use by adults based on their body weight.

[3] = listed as minocycline hydrochloride, hydrochloride

| Structure (SMILES) | indigenous P. acnes in the mouse lung by PCR [1] | granulomatous lesions / granuloma formation by histological examination [2] | granulomatous lesions / granuloma formation by histological examination ([2]; listed as clindamycin) | number of CD4+ cells in BAL, in words [2] | total number of BAL leukocytes [2] | total number of BAL leukocytes ([2]; listed as clindamycin) | granulomatous lesions / granuloma formation by histological examination ([2]; hydrochloride) | granulomatous lesions / granuloma formation by histological examination [2, 3] | total number of BAL leukocytes ([2]; hydrochloride) | total number of BAL leukocytes [2, 3] |
| --- | --- | --- | --- | --- | --- | --- | --- | --- | --- | --- |
| CCC[C@@H]1C[C@@H](C(=O)N[C@@H]([C@H]2O[C@H](SC)[C@H](O)[C@@H](O)[C@H]2O)[C@H](C)Cl)N(C)C1 [CLDM, clindamycin] | decreased | decrease | suppressed | decreased | marked decrease | decreased | – | – | – | – |
| CN(C)c1ccc(O)c2c1C[C@H]1C[C@H]3[C@H](N(C)C)C(O)=C(C(N)=O)C(=O)[C@@]3(O)C(O)=C1C2=O [MINO, minocycline hydrochloride] | decreased | – | – | decreased | – | – | decrease | suppressed | marked decrease | decreased |
